No constants are given. Whether binding was seen depends on the method and setting. For part of these data: In cells and extracts the contact can be indirect. Some binding calls cover weakened binding; strength is not graded here.

Chains of the proteins cited; added tags and fusions are not shown. Lines headed by an entry give the natural chain unless they say otherwise; changes in a name come on top. A line that says so, or that is headed by a name, gives the form on record, which may keep a tag or linker.
UniProt Q15691: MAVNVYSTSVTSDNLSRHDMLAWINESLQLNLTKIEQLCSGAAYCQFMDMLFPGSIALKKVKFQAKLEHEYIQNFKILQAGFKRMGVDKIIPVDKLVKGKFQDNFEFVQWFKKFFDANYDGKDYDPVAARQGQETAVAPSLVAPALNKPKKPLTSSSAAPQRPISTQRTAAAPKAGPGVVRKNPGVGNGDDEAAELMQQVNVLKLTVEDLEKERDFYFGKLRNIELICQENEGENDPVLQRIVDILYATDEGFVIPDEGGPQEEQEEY
UniProt Q8TEP8: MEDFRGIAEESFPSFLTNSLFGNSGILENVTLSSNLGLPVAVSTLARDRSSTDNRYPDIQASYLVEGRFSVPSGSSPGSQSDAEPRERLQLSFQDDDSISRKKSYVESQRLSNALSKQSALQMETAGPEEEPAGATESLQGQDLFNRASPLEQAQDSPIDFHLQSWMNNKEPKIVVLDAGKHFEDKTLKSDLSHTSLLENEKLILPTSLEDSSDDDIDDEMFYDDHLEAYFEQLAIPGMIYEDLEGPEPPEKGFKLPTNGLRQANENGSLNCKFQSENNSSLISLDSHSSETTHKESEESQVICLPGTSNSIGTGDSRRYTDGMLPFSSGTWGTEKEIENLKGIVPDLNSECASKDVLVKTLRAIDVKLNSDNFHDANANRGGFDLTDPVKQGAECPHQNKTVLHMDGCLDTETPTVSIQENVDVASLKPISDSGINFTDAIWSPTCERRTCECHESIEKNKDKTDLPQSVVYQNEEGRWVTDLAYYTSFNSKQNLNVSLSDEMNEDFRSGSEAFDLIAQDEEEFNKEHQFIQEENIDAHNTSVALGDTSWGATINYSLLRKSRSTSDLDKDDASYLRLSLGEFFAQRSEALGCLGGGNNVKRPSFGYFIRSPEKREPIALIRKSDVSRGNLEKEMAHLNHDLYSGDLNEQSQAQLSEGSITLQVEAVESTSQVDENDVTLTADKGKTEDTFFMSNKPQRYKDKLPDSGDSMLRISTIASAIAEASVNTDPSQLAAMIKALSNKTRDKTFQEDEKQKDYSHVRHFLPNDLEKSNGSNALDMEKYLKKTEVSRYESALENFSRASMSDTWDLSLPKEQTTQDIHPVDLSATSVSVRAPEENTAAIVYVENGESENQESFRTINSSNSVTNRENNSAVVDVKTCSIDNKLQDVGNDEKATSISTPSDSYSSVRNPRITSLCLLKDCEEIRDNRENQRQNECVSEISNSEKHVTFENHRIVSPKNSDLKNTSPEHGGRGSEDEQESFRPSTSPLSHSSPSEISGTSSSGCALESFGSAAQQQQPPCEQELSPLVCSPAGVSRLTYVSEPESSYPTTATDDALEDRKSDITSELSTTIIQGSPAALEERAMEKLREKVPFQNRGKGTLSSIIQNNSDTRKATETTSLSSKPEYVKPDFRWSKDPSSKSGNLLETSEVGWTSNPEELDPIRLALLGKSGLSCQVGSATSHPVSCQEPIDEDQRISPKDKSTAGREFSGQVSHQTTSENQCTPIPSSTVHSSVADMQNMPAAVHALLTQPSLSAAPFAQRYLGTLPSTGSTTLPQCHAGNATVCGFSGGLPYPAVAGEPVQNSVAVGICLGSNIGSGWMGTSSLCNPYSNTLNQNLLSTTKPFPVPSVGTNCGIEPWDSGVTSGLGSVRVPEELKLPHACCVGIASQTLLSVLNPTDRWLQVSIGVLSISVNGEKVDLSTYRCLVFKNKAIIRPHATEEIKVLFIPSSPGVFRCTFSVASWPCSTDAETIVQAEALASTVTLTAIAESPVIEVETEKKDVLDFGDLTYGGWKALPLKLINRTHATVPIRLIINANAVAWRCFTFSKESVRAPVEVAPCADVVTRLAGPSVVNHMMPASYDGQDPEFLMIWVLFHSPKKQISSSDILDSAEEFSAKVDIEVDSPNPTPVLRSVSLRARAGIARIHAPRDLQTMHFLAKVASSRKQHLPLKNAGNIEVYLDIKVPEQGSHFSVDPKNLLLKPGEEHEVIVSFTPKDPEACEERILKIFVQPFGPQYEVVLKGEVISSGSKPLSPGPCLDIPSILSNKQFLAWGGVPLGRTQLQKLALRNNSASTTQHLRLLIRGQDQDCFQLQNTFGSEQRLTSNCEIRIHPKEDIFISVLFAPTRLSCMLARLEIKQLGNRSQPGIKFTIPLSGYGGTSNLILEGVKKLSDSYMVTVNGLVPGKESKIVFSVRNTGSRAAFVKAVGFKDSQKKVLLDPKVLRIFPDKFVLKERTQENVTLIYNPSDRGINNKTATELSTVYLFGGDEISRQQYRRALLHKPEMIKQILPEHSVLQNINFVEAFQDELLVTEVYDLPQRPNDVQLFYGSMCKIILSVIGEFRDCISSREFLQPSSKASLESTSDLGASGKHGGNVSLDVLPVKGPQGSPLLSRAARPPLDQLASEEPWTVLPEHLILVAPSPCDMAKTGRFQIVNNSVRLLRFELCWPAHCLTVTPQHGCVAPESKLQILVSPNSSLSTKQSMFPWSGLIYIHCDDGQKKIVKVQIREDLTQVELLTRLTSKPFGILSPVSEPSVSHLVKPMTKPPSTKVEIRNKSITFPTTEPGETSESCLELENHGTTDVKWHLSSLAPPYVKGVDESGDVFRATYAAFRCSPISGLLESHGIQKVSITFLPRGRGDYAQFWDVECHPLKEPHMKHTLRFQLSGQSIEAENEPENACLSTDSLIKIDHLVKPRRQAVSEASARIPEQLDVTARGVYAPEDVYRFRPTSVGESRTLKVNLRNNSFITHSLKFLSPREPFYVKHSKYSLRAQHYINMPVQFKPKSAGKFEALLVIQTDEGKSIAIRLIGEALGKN
GFP-tagged Cep192 7KtoR from DLD-1 cells (Q8TEP8, form named): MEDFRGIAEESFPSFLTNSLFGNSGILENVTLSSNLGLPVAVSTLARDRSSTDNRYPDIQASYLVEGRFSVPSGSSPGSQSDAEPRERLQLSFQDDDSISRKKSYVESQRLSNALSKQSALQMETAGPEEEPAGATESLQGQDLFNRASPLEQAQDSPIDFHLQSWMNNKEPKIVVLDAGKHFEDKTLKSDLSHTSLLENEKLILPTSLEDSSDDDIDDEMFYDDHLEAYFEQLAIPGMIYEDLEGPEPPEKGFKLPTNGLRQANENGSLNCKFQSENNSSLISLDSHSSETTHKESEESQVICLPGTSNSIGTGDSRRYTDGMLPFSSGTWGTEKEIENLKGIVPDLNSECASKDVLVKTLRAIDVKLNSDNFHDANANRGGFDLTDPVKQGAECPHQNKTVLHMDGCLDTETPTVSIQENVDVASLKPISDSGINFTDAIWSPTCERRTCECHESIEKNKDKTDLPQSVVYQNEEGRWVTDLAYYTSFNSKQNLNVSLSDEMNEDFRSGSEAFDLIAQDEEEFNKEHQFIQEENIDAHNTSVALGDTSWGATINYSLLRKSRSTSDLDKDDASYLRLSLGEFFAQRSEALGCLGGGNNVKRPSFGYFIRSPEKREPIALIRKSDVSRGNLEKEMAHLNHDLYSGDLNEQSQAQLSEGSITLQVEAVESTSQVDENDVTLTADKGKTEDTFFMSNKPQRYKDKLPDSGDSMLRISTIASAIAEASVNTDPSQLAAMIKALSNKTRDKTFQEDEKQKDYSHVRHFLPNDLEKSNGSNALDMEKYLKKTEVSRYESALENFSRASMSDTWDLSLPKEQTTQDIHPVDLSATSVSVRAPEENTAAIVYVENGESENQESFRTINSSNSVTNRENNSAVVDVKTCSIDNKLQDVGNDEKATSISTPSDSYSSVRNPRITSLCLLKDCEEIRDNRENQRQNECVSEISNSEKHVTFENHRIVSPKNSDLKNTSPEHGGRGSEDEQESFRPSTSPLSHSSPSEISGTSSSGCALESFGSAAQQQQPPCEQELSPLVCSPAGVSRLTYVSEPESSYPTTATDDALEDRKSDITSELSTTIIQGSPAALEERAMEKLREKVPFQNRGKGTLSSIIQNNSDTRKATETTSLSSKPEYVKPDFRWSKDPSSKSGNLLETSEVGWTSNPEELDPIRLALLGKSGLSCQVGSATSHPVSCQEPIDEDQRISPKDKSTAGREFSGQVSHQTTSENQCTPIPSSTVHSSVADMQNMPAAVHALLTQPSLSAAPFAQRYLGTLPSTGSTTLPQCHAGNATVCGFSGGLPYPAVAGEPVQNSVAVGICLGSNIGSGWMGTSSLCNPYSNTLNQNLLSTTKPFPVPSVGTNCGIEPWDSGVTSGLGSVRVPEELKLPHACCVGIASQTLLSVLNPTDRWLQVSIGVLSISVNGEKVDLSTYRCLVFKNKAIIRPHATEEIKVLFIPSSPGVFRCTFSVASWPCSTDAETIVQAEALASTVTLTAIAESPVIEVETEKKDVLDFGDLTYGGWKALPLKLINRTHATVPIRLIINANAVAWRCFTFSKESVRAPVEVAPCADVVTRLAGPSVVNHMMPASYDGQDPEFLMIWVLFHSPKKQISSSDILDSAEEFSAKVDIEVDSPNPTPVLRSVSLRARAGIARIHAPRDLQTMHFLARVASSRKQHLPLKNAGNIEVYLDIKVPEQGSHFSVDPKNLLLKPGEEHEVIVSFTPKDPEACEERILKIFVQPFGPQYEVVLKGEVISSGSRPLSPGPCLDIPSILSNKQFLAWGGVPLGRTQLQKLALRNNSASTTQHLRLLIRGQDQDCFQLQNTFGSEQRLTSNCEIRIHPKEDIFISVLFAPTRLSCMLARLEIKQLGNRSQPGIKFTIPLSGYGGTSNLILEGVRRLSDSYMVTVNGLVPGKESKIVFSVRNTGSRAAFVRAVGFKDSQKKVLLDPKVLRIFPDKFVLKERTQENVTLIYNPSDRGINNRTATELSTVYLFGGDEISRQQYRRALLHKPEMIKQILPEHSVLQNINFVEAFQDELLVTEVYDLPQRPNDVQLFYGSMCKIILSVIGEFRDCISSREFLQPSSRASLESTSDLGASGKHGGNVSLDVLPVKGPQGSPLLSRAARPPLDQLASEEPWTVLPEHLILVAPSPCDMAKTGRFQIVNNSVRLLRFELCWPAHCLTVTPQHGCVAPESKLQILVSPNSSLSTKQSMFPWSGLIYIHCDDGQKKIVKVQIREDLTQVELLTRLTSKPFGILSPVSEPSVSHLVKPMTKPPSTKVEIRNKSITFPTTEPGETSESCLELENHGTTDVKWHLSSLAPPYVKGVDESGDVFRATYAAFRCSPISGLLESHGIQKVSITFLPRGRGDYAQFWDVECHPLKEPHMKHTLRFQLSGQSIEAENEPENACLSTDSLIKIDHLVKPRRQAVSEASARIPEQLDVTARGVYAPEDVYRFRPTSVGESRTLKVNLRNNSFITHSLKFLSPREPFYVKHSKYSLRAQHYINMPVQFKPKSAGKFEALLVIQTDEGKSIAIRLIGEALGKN
UniProt O94972: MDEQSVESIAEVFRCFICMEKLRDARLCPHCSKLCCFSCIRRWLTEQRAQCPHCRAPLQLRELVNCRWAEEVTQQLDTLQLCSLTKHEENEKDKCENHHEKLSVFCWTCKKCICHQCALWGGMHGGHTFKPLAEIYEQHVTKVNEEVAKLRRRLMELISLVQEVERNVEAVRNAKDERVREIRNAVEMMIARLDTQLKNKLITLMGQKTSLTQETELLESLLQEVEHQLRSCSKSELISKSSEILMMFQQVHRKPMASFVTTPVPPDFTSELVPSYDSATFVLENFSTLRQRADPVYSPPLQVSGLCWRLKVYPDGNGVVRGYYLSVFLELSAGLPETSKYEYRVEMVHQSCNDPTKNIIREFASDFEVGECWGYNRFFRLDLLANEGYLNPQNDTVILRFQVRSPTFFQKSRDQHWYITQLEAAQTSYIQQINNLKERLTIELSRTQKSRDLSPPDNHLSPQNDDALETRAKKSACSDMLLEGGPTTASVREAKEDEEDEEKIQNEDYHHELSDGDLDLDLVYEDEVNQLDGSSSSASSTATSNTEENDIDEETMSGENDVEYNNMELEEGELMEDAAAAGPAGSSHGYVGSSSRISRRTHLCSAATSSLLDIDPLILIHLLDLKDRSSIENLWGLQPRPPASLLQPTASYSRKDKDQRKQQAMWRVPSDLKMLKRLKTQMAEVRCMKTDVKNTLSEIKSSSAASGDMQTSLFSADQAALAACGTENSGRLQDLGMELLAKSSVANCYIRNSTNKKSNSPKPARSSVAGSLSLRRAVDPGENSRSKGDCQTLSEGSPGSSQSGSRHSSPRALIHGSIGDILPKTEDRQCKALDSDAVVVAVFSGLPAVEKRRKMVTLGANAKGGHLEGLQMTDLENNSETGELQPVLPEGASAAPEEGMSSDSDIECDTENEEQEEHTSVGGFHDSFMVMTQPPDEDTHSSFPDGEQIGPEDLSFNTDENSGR

This passage reports binding results from paper doi:10.64898/2025.12.19.695442.

Assay [1] addresses EB1-GFP (UniProt Q15691). Description: pull-down; purified GFP fusion (1 uM) incubated with TRIM37 (1 ug) 1 hr at 37°C, precipitated with GFP-Trap magnetic particles; washes 150 mM KCl, 25 mM HEPES, 1% glycerol, 0.05% NP-40, last wash 500 mM KCl; Western blot against TRIM37; both purified.
The target of assay [2] is GFP-tagged Cep192 7KtoR from DLD-1 cells (UniProt Q8TEP8). Description: pull-down; GFP-Cep192 constructs expressed in DLD-1 cells, on GFP-Trap beads; TRIM37 detected; source of TRIM37 not told (Fig. S1E).
Assay [3] deals with GFP-tagged wild-type Cep192 (WT) from DLD-1 cells (UniProt Q8TEP8). The assay is described as above.

TRIM37 (from UniProt O94972 1-964): the binding entry in assay [1] is given as “no binding (tested: 1 μM EB1, 1 μg TRIM37)”. For the substance “TRIM37 pulled down by GFP-Cep192 constructs from DLD-1 cells (Fig. S1E) (from UniProt O94972 1-964)”, the binding entry in assay [2] and in assay [3] was “binds” each time.
